Literature values as cited in US20210186070A1, “STEVIA EXTRACT CONTAINING SELECTED STEVIOL GLYCOSIDES AS FLAVOR, SALTY AND SWEETNESS PROFILE MODIFIER” (PureCircle USA Inc., priority 2013, published 2021).

settings: Table 1

Row | Molecule | Quality of taste
1 | C=C1C[C@@]23CC[C@H]4[C@@](C)(CCC[C@@]4(C)C(=O)O[C@@H]4O[C@H](CO)[C@@H](O)[C@H](O)[C@H]4O)[C@@H]2CC[C@]1(O[C@@H]1O[C@H](CO)[C@@H](O)[C@H](O)[C@H]1O[C@@H]1O[C@@H](C)[C@H](O)[C@@H](O)[C@H]1O)C3 [Dulcoside A] | Very bitter
2 | C=C1C[C@@]23CC[C@H]4[C@@](C)(CCC[C@@]4(C)C(=O)O[C@@H]4O[C@H](CO)[C@@H](O)[C@H](O)[C@H]4O[C@@H]4O[C@H](CO)[C@@H](O)[C@H](O)[C@H]4O)[C@@H]2CC[C@]1(O[C@@H]1O[C@H](CO)[C@@H](O)[C@H](O[C@@H]2O[C@H](CO)[C@@H](O)[C@H](O)[C@H]2O)[C@H]1O[C@@H]1O[C@H](CO)[C@@H](O)[C@H](O)[C@H]1O)C3 [Rebaudioside D] | Like sucrose
3 | C=C1C[C@@]23CC[C@H]4[C@@](C)(CCC[C@@]4(C)C(=O)O[C@@H]4O[C@H](CO)[C@@H](O)[C@H](O)[C@H]4O[C@@H]4O[C@H](CO)[C@@H](O)[C@H](O)[C@H]4O)[C@@H]2CC[C@]1(O[C@@H]1O[C@H](CO)[C@@H](O)[C@H](O)[C@H]1O[C@@H]1O[C@H](CO)[C@@H](O)[C@H](O)[C@H]1O)C3 [Rebaudioside E] | Like sucrose
4 | C=C1C[C@@]23CC[C@H]4[C@@](C)(CCC[C@@]4(C)C(=O)O[C@@H]4O[C@H](CO)[C@@H](O)[C@H](O)[C@H]4O)[C@@H]2CC[C@]1(O[C@@H]1O[C@H](CO)[C@@H](O)[C@H](O)[C@H]1O)C3 [Rubusoside] | Very bitter
5 | C=C1C[C@@]23CC[C@H]4[C@@](C)(CCC[C@@]4(C)C(=O)O)[C@@H]2CC[C@]1(O)C3 [Steviol] | Very bitter
6 | C=C1C[C@@]23CC[C@H]4[C@@](C)(CCC[C@@]4(C)C(=O)O)[C@@H]2CC[C@]1(O[C@@H]1O[C@H](CO)[C@@H](O)[C@H](O)[C@H]1O[C@@H]1O[C@H](CO)[C@@H](O)[C@H](O)[C@H]1O)C3 [Steviolbioside] | Unpleasant
7 | C=C1C[C@@]23CC[C@H]4[C@@](C)(CCC[C@@]4(C)C(=O)O[C@@H]4O[C@H](CO)[C@@H](O)[C@H](O)[C@H]4O)[C@@H]2CC[C@]1(O[C@@H]1O[C@H](CO)[C@@H](O)[C@H](O)[C@H]1O[C@@H]1O[C@H](CO)[C@@H](O)[C@H](O)[C@H]1O)C3 [Stevioside] | Bitter
8 | Rebaudioside B | Bitter
9 | Rebaudioside C | Bitter
